Laboratory results reported in the supplement of paper PMC12823440, “Inhibitors supercharge kinase turnover through native proteolytic circuits” (Nature, 2025).
Structures can show the parent of a compound that is named as a salt. The list shows a part of the results. Hit calls seldom repeat between salt and free forms of one compound.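 In K562 cells expressing nanoluciferase-fused kinases, luminescence was recorded at 4 h intervals between 2 and 18 h, normalized as percent of control with DMSO at 100% and a positive control at 0%. A significant (2 sigma) signal drop marks a time point as decreased. The authors' rule for a hit is not shown and takes in more than the number of time points.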

By UniProt entry, the sequences of proteins in these tests, tags left out. Where a name states a change or a piece, a line headed by the entry shows the natural chain unless it says otherwise.
UniProt P53667: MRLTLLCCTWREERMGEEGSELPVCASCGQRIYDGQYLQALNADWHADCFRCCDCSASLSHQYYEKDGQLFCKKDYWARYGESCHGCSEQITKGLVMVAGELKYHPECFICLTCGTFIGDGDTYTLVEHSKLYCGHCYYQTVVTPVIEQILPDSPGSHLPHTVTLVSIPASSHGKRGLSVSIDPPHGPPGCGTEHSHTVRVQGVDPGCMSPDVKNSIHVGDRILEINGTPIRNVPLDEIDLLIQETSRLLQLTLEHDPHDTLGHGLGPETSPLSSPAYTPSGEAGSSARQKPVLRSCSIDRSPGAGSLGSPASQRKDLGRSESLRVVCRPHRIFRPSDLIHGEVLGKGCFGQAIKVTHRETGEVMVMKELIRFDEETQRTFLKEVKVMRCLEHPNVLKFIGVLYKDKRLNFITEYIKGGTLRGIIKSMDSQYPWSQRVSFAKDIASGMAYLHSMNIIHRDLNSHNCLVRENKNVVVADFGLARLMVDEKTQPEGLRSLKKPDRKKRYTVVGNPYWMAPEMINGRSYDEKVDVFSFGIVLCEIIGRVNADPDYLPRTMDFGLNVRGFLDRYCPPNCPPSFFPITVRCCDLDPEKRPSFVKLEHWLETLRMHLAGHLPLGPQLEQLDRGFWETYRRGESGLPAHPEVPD
UniProt P53671: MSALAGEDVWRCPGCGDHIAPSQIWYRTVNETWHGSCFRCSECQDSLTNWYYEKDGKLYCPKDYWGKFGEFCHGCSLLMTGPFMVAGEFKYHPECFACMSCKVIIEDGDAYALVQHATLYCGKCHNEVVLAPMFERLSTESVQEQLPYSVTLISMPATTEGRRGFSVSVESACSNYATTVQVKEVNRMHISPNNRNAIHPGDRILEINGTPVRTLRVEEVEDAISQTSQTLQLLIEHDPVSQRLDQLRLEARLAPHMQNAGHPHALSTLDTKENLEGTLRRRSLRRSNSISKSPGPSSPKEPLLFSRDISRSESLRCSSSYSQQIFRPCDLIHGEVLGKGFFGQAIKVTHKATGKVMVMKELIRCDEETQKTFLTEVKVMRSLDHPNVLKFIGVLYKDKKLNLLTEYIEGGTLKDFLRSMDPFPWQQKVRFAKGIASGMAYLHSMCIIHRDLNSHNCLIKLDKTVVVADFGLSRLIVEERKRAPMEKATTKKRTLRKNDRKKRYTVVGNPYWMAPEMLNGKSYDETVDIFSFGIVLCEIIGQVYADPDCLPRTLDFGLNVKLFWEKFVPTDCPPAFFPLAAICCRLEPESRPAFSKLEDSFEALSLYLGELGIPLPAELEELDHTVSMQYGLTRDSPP
UniProt P07948: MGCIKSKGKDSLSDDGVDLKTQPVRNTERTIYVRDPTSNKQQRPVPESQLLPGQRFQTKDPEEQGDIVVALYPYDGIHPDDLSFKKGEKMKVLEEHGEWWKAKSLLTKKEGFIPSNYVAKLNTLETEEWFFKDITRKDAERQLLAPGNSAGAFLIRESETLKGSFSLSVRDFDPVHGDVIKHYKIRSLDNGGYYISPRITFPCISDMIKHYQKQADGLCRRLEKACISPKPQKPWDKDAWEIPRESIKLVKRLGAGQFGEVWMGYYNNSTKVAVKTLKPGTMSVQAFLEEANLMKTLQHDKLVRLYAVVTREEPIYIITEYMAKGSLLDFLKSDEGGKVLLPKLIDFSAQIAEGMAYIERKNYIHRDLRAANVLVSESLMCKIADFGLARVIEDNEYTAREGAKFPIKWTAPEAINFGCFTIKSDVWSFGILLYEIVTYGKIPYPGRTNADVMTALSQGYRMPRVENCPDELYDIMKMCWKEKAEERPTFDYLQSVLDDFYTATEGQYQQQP
UniProt Q12851: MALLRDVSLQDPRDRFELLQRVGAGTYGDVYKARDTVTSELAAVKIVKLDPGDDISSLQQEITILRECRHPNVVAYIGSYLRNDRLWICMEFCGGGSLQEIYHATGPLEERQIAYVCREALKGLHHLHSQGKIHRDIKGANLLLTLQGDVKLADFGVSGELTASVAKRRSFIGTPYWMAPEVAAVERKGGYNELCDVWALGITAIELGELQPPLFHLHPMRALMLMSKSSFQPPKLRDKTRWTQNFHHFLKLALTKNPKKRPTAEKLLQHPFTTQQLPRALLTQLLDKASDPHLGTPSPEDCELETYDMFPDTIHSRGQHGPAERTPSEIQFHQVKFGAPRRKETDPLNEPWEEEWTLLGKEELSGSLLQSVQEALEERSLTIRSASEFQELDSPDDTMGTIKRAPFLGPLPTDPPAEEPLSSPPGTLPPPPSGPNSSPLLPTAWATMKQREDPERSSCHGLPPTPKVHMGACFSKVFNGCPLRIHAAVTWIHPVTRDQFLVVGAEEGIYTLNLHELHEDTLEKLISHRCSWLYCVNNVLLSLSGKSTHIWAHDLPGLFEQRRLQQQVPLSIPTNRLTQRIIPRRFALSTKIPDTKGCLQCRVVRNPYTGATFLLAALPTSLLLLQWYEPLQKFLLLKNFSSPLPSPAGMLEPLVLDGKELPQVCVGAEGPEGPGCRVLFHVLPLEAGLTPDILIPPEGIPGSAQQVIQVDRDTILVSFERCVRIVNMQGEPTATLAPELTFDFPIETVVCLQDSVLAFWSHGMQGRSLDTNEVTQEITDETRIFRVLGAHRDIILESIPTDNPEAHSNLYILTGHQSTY
UniProt P28482, whole entry: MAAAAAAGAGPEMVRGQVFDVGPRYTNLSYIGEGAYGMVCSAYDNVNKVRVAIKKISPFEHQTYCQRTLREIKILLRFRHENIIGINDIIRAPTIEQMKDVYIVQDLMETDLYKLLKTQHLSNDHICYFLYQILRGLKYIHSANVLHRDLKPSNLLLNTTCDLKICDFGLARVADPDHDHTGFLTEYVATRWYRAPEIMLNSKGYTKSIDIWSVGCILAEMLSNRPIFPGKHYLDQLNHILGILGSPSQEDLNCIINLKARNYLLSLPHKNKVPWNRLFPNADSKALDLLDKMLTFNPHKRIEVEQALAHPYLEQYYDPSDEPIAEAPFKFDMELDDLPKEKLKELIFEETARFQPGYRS
UniProt P49137, whole entry, looked up: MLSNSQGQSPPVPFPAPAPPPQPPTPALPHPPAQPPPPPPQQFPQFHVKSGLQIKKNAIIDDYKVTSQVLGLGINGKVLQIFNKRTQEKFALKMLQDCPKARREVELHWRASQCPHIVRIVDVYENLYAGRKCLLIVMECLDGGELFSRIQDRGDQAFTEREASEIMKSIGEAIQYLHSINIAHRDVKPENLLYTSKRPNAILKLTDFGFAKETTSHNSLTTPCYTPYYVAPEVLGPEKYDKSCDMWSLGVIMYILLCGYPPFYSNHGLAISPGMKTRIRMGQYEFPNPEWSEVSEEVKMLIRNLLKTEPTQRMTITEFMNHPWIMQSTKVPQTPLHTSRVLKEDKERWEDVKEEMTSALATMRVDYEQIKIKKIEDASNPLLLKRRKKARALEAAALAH
UniProt Q9BUB5: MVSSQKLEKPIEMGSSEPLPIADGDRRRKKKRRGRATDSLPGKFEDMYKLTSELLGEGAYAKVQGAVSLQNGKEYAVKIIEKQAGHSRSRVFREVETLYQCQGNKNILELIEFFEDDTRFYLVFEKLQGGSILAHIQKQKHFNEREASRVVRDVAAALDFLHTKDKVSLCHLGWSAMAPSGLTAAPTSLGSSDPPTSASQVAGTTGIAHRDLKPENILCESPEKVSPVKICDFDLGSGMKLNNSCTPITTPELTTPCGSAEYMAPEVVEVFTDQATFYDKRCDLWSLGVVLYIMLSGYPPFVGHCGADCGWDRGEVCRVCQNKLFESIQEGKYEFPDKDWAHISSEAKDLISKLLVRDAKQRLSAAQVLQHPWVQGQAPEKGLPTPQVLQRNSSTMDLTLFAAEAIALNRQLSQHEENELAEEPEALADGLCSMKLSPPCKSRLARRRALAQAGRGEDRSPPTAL
UniProt Q16620, whole entry, looked up: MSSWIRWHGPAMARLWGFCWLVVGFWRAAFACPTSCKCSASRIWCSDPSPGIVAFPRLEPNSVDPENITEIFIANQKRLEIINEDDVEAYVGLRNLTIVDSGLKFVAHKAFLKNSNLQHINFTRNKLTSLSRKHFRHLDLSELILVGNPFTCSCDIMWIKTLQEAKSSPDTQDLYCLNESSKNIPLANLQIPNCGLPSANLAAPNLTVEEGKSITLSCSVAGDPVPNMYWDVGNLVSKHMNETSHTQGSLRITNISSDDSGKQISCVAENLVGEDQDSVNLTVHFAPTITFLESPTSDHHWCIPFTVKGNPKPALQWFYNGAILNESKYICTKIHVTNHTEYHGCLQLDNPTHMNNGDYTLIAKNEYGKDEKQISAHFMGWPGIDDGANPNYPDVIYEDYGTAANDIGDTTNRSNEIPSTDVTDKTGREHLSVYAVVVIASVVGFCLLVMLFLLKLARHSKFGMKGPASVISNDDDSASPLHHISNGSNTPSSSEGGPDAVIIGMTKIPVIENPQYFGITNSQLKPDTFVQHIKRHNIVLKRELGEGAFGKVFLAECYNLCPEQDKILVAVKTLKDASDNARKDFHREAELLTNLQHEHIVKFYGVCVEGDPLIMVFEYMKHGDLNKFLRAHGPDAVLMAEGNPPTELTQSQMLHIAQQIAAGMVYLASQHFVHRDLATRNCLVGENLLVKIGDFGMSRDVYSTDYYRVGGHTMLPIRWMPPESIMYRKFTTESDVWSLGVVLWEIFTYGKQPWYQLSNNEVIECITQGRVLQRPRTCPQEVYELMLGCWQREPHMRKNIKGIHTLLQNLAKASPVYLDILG
UniProt Q96KB5: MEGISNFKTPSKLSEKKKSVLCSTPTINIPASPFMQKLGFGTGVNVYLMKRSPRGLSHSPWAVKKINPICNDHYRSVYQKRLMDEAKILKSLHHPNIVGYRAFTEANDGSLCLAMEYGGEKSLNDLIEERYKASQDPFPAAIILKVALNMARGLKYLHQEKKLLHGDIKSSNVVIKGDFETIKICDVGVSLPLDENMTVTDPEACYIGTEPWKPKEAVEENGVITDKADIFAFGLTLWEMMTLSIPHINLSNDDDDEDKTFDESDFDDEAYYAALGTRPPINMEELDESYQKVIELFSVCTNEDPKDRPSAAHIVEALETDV
UniProt P09619, whole entry: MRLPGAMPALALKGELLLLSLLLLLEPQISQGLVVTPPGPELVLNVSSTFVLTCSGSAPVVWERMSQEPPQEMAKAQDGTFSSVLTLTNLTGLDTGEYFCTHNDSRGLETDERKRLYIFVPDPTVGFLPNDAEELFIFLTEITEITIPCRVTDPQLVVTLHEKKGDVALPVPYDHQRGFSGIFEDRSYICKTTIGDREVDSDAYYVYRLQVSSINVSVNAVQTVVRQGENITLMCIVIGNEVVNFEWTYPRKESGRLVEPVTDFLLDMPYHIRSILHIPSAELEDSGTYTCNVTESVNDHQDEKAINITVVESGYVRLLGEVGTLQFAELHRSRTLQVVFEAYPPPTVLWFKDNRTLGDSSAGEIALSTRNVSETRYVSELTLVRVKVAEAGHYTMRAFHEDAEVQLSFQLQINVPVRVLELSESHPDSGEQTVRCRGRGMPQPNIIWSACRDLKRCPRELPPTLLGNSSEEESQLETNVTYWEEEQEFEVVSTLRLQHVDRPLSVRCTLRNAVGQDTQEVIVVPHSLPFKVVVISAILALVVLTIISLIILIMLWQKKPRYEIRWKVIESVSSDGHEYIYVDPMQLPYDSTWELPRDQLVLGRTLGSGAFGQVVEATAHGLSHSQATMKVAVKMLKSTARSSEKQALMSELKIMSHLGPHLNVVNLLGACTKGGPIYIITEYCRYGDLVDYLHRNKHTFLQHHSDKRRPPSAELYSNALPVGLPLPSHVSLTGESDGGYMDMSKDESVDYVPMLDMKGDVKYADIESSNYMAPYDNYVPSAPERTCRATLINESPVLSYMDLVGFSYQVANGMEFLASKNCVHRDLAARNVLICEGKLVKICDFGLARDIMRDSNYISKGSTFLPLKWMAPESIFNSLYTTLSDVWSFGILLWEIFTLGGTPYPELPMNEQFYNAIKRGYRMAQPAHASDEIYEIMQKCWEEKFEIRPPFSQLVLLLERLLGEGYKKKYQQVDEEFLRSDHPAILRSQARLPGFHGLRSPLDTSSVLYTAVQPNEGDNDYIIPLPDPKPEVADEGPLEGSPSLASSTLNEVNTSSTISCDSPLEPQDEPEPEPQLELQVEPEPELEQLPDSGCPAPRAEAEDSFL
UniProt Q15118, whole entry, looked up: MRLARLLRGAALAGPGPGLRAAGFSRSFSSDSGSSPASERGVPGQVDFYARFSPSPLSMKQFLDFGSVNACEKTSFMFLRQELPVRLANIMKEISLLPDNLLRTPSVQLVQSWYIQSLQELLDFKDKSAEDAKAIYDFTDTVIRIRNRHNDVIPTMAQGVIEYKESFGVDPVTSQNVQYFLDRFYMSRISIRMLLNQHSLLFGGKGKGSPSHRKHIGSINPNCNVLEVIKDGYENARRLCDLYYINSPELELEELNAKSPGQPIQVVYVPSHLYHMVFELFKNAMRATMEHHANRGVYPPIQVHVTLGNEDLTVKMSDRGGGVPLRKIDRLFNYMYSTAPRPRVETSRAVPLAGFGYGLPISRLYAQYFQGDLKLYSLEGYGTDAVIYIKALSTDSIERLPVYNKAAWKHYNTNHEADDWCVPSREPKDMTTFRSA

Experiments:
Assay in all cases: kinase-Nluc reporter destabilization hit call (1 = scored as downregulated) (binary); higher = compound decreases kinase abundance
Details in all cases: K562; 2-18 h
IRAK3 = IRAK3 (UniProt Q9Y616)
JAK1 = JAK1 (UniProt P23458)
LCK = LCK (UniProt P06239)
LIMK1 = LIMK1 (UniProt P53667)
LIMK2 = LIMK2 (UniProt P53671)
LMTK2 = LMTK2 (UniProt Q8IWU2)
LYN = LYN (UniProt P07948)
MAP2K1 = MAP2K1 (UniProt Q02750)
MAP2K2 = MAP2K2 (UniProt P36507)
MAP4K2 = MAP4K2 (UniProt Q12851)
MAPK1 = MAPK1 (UniProt P28482)
MAPK4 = MAPK4 (UniProt P31152)
MAPKAPK2 = MAPKAPK2 (UniProt P49137)
MKNK1 = MKNK1 (UniProt Q9BUB5)
NTRK2 = NTRK2 (UniProt Q16620)
NTRK3 = NTRK3 (UniProt Q16288)
PAK4 = PAK4 (UniProt O96013)
PBK = PBK (UniProt Q96KB5)
PDGFRB = PDGFRB (UniProt P09619)
PDK1 = PDK1 (UniProt Q15118)

Measured: kinase-Nluc reporter destabilization hit call

O=C(NCCN1CCOCC1)Nc1nc2ccc(Sc3nnc4ccc(-c5ccc(F)cc5)nn34)cc2s1 (10 µM)
inactive: IRAK3 = 0 | JAK1 = 0 | LCK 0 | LIMK1 = 0 | LIMK2 = 0 | LMTK2 = 0 | LYN 0 | MAP2K1 = 0 | MAP2K2 = 0 | MAP4K2 = 0 | MAPK1 = 0 | MAPK4 = 0 | MAPKAPK2 = 0 | MKNK1 = 0 | NTRK2 = 0 | NTRK3 = 0 | PAK4 = 0 | PBK 0 | PDGFRB 0 | PDK1 = 0

Nc1ncnc2c1nc(Br)n2[C@@H]1O[C@@H]2COP(=O)(O)O[C@H]2[C@H]1O [8-Bromo-cAMP sodium salt] (10 µM)
inactive: IRAK3 = 0 | JAK1 = 0 | LCK 0 | LIMK1 = 0 | LIMK2 = 0 | LMTK2 = 0 | LYN 0 | MAP2K1 = 0 | MAP2K2 = 0 | MAP4K2 = 0 | MAPK1 = 0 | MAPK4 = 0 | MAPKAPK2 = 0 | MKNK1 = 0 | NTRK2 = 0 | NTRK3 = 0 | PAK4 = 0 | PBK 0 | PDGFRB 0 | PDK1 = 0

CCCCCc1ccc(/C=C/[C@H](O)[C@@H](CO)NC)cc1 [SK1-I (hydrochloride)] (10 µM)
inactive: IRAK3 = 0 | JAK1 = 0 | LCK 0 | LIMK1 = 0 | LIMK2 = 0 | LMTK2 = 0 | LYN 0 | MAP2K1 = 0 | MAP2K2 = 0 | MAP4K2 = 0 | MAPK1 = 0 | MAPK4 = 0 | MAPKAPK2 = 0 | MKNK1 = 0 | NTRK2 = 0 | NTRK3 = 0 | PAK4 = 0 | PBK 0 | PDGFRB 0 | PDK1 = 0

c1nc2c(NC3CCCCC3)nc(Nc3ccc(N4CCOCC4)cc3)nc2[nH]1 [Reversine] (10 µM)
inactive: IRAK3 = 0 | JAK1 = 0 | LCK 0 | LIMK1 = 0 | LIMK2 = 0 | LMTK2 = 0 | LYN 0 | MAP2K1 = 0 | MAP2K2 = 0 | MAP4K2 = 0 | MAPK1 = 0 | MAPK4 = 0 | MAPKAPK2 = 0 | MKNK1 = 0 | NTRK2 = 0 | NTRK3 = 0 | PAK4 = 0 | PBK 0 | PDGFRB 0 | PDK1 = 0

CCc1c[nH]c2ncnc(N3CC[C@](N)(CNC(=O)c4ccc(F)cc4F)C3)c12 (10 µM)
inactive: IRAK3 = 0 | JAK1 = 0 | LCK 0 | LIMK1 = 0 | LIMK2 = 0 | LMTK2 = 0 | LYN 0 | MAP2K1 = 0 | MAP2K2 = 0 | MAP4K2 = 0 | MAPK1 = 0 | MAPK4 = 0 | MAPKAPK2 = 0 | MKNK1 = 0 | NTRK2 = 0 | NTRK3 = 0 | PAK4 = 0 | PBK 0 | PDGFRB 0 | PDK1 = 0

CC(O)(C#Cc1ccc2c(c1)N(c1nc(N)ncc1Cl)CC2)c1nccs1 (stereo not given) (2.5 µM)
inactive: IRAK3 = 0 | JAK1 = 0 | LCK 0 | LIMK1 = 0 | LIMK2 = 0 | LMTK2 = 0 | LYN 0 | MAP2K1 = 0 | MAP2K2 = 0 | MAP4K2 = 0 | MAPK1 = 0 | MAPK4 = 0 | MAPKAPK2 = 0 | MKNK1 = 0 | NTRK2 = 0 | NTRK3 = 0 | PAK4 = 0 | PBK 0 | PDGFRB 0 | PDK1 = 0

NS(=O)(=O)c1ccc(Nc2nc(-c3cccc(-c4ccccc4)c3)c3[nH]cnc3n2)cc1 (10 µM)
inactive: IRAK3 = 0 | JAK1 = 0 | LCK 0 | LIMK1 = 0 | LIMK2 = 0 | LMTK2 = 0 | LYN 0 | MAP2K1 = 0 | MAP2K2 = 0 | MAP4K2 = 0 | MAPK1 = 0 | MAPK4 = 0 | MAPKAPK2 = 0 | MKNK1 = 0 | NTRK2 = 0 | NTRK3 = 0 | PAK4 = 0 | PBK 0 | PDGFRB 0 | PDK1 = 0

A draw from above in order of molecular weight, low to high.
CCCCCc1ccc(/C=C/[C@H](O)[C@@H](CO)NC)cc1 [SK1-I (hydrochloride)] (10 µM)
inactive: IRAK3 = 0 | JAK1 = 0 | LCK 0 | LIMK1 = 0 | LIMK2 = 0 | LMTK2 = 0 | LYN 0 | MAP2K1 = 0 | MAP2K2 = 0 | MAP4K2 = 0 | MAPK1 = 0 | MAPK4 = 0 | MAPKAPK2 = 0 | MKNK1 = 0 | NTRK2 = 0 | NTRK3 = 0 | PAK4 = 0 | PBK 0 | PDGFRB 0 | PDK1 = 0

CC(O)(C#Cc1ccc2c(c1)N(c1nc(N)ncc1Cl)CC2)c1nccs1 (stereo not given) (2.5 µM)
inactive: IRAK3 = 0 | JAK1 = 0 | LCK 0 | LIMK1 = 0 | LIMK2 = 0 | LMTK2 = 0 | LYN 0 | MAP2K1 = 0 | MAP2K2 = 0 | MAP4K2 = 0 | MAPK1 = 0 | MAPK4 = 0 | MAPKAPK2 = 0 | MKNK1 = 0 | NTRK2 = 0 | NTRK3 = 0 | PAK4 = 0 | PBK 0 | PDGFRB 0 | PDK1 = 0

CCc1c[nH]c2ncnc(N3CC[C@](N)(CNC(=O)c4ccc(F)cc4F)C3)c12 (10 µM)
inactive: IRAK3 = 0 | JAK1 = 0 | LCK 0 | LIMK1 = 0 | LIMK2 = 0 | LMTK2 = 0 | LYN 0 | MAP2K1 = 0 | MAP2K2 = 0 | MAP4K2 = 0 | MAPK1 = 0 | MAPK4 = 0 | MAPKAPK2 = 0 | MKNK1 = 0 | NTRK2 = 0 | NTRK3 = 0 | PAK4 = 0 | PBK 0 | PDGFRB 0 | PDK1 = 0

Following part:

Cc1ccc(NC(=O)Nc2cc(C(F)(F)F)ccc2F)cc1Nc1ccc2c(c1)NC(=O)/C2=C\c1ccc[nH]1 (2.5 µM)
inactive: IRAK3 = 0 | JAK1 = 0 | LCK 0 | LIMK1 = 0 | LIMK2 = 0 | LMTK2 = 0 | LYN 0 | MAP2K1 = 0 | MAP2K2 = 0 | MAP4K2 = 0 | MAPK1 = 0 | MAPK4 = 0 | MAPKAPK2 = 0 | MKNK1 = 0 | NTRK2 = 0 | NTRK3 = 0 | PAK4 = 0 | PBK 0 | PDGFRB 0 | PDK1 = 0

NC1(C(=O)NCCCn2cc(-c3ccc(OC(F)(F)F)cc3)c3cc(CN4CCN(Cc5c(Cl)cccc5Cl)CC4)ccc32)CCNCC1 (2.5 µM)
inactive: IRAK3 = 0 | JAK1 = 0 | LCK 0 | LIMK1 = 0 | LIMK2 = 0 | LMTK2 = 0 | LYN 0 | MAP2K1 = 0 | MAP2K2 = 0 | MAP4K2 = 0 | MAPK1 = 0 | MAPK4 = 0 | MAPKAPK2 = 0 | MKNK1 = 0 | NTRK2 = 0 | NTRK3 = 0 | PAK4 = 0 | PBK 0 | PDGFRB 0 | PDK1 = 0

CNC(=O)c1ccc2c(c1)ncn2-c1ccc(CC(=O)OC(C)(C)C)cc1 (10 µM)
inactive: IRAK3 = 0 | JAK1 = 0 | LCK 0 | LIMK1 = 0 | LIMK2 = 0 | LMTK2 = 0 | LYN 0 | MAP2K1 = 0 | MAP2K2 = 0 | MAP4K2 = 0 | MAPK1 = 0 | MAPK4 = 0 | MAPKAPK2 = 0 | MKNK1 = 0 | NTRK2 = 0 | NTRK3 = 0 | PAK4 = 0 | PBK 0 | PDGFRB 0 | PDK1 = 0

O=C1OC(/C=C/c2ccccc2)=NC/1=C\c1cccnc1 (10 µM)
inactive: IRAK3 = 0 | JAK1 = 0 | LCK 0 | LIMK1 = 0 | LIMK2 = 0 | LMTK2 = 0 | LYN 0 | MAP2K1 = 0 | MAP2K2 = 0 | MAP4K2 = 0 | MAPK1 = 0 | MAPK4 = 0 | MAPKAPK2 = 0 | MKNK1 = 0 | NTRK2 = 0 | NTRK3 = 0 | PAK4 = 0 | PBK 0 | PDGFRB 0 | PDK1 = 0

Cc1c(Cl)cccc1S(=O)(=O)Nc1nc(NCCc2ccccc2)nc2c1CN(Cc1ccccc1)CC2 (2.5 µM)
inactive: IRAK3 = 0 | JAK1 = 0 | LCK 0 | LIMK1 = 0 | LIMK2 = 0 | LMTK2 = 0 | LYN 0 | MAP2K1 = 0 | MAP2K2 = 0 | MAP4K2 = 0 | MAPK1 = 0 | MAPK4 = 0 | MAPKAPK2 = 0 | MKNK1 = 0 | NTRK2 = 0 | NTRK3 = 0 | PAK4 = 0 | PBK 0 | PDGFRB 0 | PDK1 = 0
